We go through nine compounds from the supplement of paper PMC8256030.

Several values for one entry are separate records, joined by “and”; a condition that tells them apart may be missing. Equal entries are not always repeated. This is one part of the list. Single values are uncertain here, since repeats match poorly.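 HEK293T cells were given each compound shortly before transfection with a reporter in which red mCherry is followed by the SARS-CoV-2 frameshift element and then GFP in the −1 frame, so GFP appears only after frameshifting.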

This assay relates to SARS-CoV-2 -1 PRF reporter mCherry-FSE-GFP(-1). In words: percent effect, decrease of GFP/mCherry ratio (-1 PRF reporter) relative to controls; higher = stronger frameshift inhibition. As to conditions: 10 µM; 24 h; HEK293T.
Take `Cc1c(Cl)cccc1Nc1ncccc1C(=O)O` [clonixin]: the percent effect was -4.52%.
For `NC(=O)CCC/N=C(\c1ccc(Cl)cc1)c1cc(F)ccc1O` [progabide], the percent effect is -4.79%.
In the case of `C[C@H]1O[C@H](O[C@H]2[C@H](O)[C@@H](O)[C@@H](O[C@@H]([C@H](O)[C@@H](O)C=O)[C@H](O)CO)O[C@@H]2CO)[C@H](O)[C@@H](O)[C@@H]1N[C@H]1C=C(CO)[C@@H](O)[C@H](O)[C@H]1O` [acarbose], the percent effect was -0.991% and -1.42%.
Turning to `NC12CC3CC(CC(C3)C1)C2`, the percent effect is -2.01%.
In the case of `CC(=O)S[C@@H]1CC2=CC(=O)CC[C@]2(C)[C@H]2CC[C@@]3(C)[C@@H](CC[C@@]34CCC(=O)O4)[C@H]12` [spironolactone] it was -1.12% and -8.88%; in that of `Cc1ccc(S(=O)(=O)NC(=O)N[C@H]2[C@H]3CC[C@@](C)([C@H]2O)C3(C)C)cc1` [glibornuride], 1.41%; in that of `Cn1cnc([N+](=O)[O-])c1Sc1nc(N)nc2[nH]cnc12` [tiamiprine], 14.4%.
As for `O=C(Nc1ccc(C(=O)O)c(O)c1)c1ccccc1` [calcium benzamidosalicylate], the percent effect is -4.72%.
Take `CC(C)CCCC(C)N` (centres undefined) [octodrine]: the percent effect turned out to be 0.905%.
